Results reported in patent publication US20260042829A1.
No constants are given. Whether binding was seen depends on the method and setting. Some binding calls cover weakened binding; strength is not graded here. Each block holds one binder with its values, some of them ahead of it.

Target: T1, recombinant Immuno-moodulin (recombinant Imood) (mouse) (UniProt Q8C5P7)
T1 sequence: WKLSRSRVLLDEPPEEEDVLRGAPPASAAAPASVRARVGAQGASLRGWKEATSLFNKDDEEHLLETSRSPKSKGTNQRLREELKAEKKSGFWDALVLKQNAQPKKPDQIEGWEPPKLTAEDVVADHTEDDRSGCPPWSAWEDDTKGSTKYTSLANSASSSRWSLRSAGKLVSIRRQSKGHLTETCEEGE
Test: hybridoma supernatants screened by western blot and immunoprecipitation of recombinant Imood (FIG. 6)

binding: binds
B1: monoclonal anti-Imood antibody 1C4 (antibody, V domains shown)
VH: EVQLVESGGGLVQPGRSLKLSCAASGFTFSDYNMAWVRQAPKRGLEWVATIIYDGDRTYYRDSVKGRFTISRDKAKTTLYLQMDSLRSEDTATYYCATGLAYWGQGTLVTVSS
VL: DIVMTQTPSSQAVSPGEKVTMSCKSSQSLLYSENKKNYLAWYQQKPGQSPKLLIYWASTRESGVPDRFIGSGSGTDFTLTISSVQAEDLAVYYCQQYYNFPSTFGTGTTLELK

binding: binds
B2: monoclonal anti-Imood antibody 1B10 (antibody, V domains shown)
VH: AVQLVESGGGLVQPEESLKISCAASGITFSNVAMYWVRQAPGKGLEWVARIRSKANNYATYYADSVKGRFTISRDDSKSMVYLQMDNLKTEDTAMYYCSAWVIVPLYFDYWGQGVMVTVSS
VL: DIVMTQAPLSVSVTPGESASISCRSSKSLLSSKGITSLYWYLQRPGKSPQLLIYQMSNLASGVPDRFSSSGSETDFTLKISKVEAEDVGVYYCGHRLQTPFTFGSGTKLEIK
